From PMC8802890, “Identification of U937^JAK3-M511I Acute Myeloid Leukemia Cells as a Sensitive Model to JAK3 Inhibitor” (Frontiers in Oncology, 2022) come the findings set out here.

Assay [1] deals with Ba/F3. Nature of the assay: CCK-8 anti-proliferation, parental Ba/F3. It counts as cell-based, Murine. Particulars: Mus musculus, BaF3; parental cells, with IL-3; CCK-8, 72 h; mean ± SD.
In assay [2] the test system is U937 AML cells. Nature of the assay: CCK-8 anti-proliferation, U937. The settings on record: Homo sapiens, U-937, 72 h, read-out: IC50 Cell line U937.
Assay [3] has as its system Ba/F3-TEL-JAK1. Nature of the assay: CCK-8 anti-proliferation, Ba/F3-TEL-JAK1. It counts as cell-based, Murine. Particulars: Mus musculus, CCK-8, 72 h, mean ± SD.

Regarding `C[C@@H]1CCN(C(=O)CC#N)C[C@@H]1N(C)c1ncnc2[nH]ccc12` [Tofacitinib], the IC50 is 3370 ± 30 nM in assay [1], 180 ± 40 nM in assay [2] and 760 ± 80 nM in assay [3].
